Laboratory results reported in patent publication US10179132B2, “Composition for inducing differentiation of multipotent neural stem cells into dopaminergic neurons and method for inducing differentiation of multipotent neural stem cells into dopaminergic neurons by using the same” (INDUSTRY-ACADEMIC COOPERATION FOUNDATION, YONSEI UNIVERSITY, priority 2015, dated 2019).
For at least one compound, name, drawing or mass did not settle the structure.

Experiments:
mouse neural stem cells [1] = assay: Morphological analysis of treated neural stem cells; assay type: cell-based; conditions: AS703026, AZD8330 10 μM; PD318088, Trametinib, Refametinib 1 μM; 4 days; FIG. 8A
Protocol: (§1) Mouse neural stem cells were cultured in accordance with the procedure of Example 1. […] The cells were cultured for 4 days.
(§2) Neurospheres were treated with TrypLE and separated into single cells, which were uniformly seeded into a culture dish coated with 15 μg/ml poly-L-ornithine and 10 μg/ml fibronectin. Following culture, the morphology of the cells was observed.
In this example, it was confirmed whether dopaminergic neurons were differentiated from neural stem cells.

mouse neural stem cells [2] = assay: Real-time RT-PCR of neuronal / dopaminergic markers in cultured neural stem cells; assay type: cell-based; conditions: AS703026, AZD8330 10 μM, PD318088, Trametinib, Refametinib 1 μM, 4 days
Protocol: Neural stem cells were isolated from the brain of a day 14.5 mouse embryo, treated with 10 ng/ml human basic fibroblast growth factor (bFGF) (Peprotech, Princeton, N.J.) and 20 ng/ml human epidermal growth factor (EGF) (Peprotech) in a N2 culture medium, and cultured in suspension in a 25 cm^2 flask (Nunc, Pittsburgh, Pa.) for 4 days.
Neurospheres were treated with TrypLE and then separated into single cells, which were uniformly seeded into a culture dish coated with 15 μg/ml poly-L-ornithine and 10 μg/ml fibronectin. Following culture, the morphology of the cells was observed.
The N2 culture medium was Dulbecco's modified Eagle's medium (DMEM)/F12 (1:1) supplemented with 100 μM putrescine, 30 nM selenite, 20 nM progesterone, 1.55 mg/ml d-(+)-glucose, 25 μg/ml insulin, […] apo-transferrin, 0.5 mM alanyl glutamine, 100 IU/ml penicillin, and 100 μg/ml streptomycin.
as §1, §2
To this end, real-time (RT) PCR analysis was performed on neuron-specific markers. On day 4 after in vitro differentiation, mRNA expression was identified. […]

CC(=O)Nc1cccc(-n2c(=O)n(C3CC3)c(=O)c3c(Nc4ccc(I)cc4F)n(C)c(=O)c(C)c32)c1 [Trametinib]
morphology of treated cells (mouse neural stem cells [1]): neuron-like morphological changes | Tuj1 (marker of neurons) expression (mouse neural stem cells [2]; FIG. 8B): expressed only | tyrosine hydroxylase (TH) expression (mouse neural stem cells [2]; FIG. 8C): expressed only
